## Results of single-concentration screens

Source: ChEMBL document CHEMBL3988442, “University of Dundee, Small-Polar-MMV Screening Library” (2021).

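Whole-parasite assay of Trypanosoma brucei over 72 hours; the read-out is not stated. Compounds at 30 µM. The record gives no direction; compounds that gave an IC50 in retests scored well above the rest, so higher reads as stronger inhibition. Values scatter widely below zero; nearly all retest evidence comes from the higher of the two concentrations used. About 64,000 compounds were tested under these conditions; 1.5% (about 940) showed 50% or more at least once.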

Each number is a percent effect as filed.
The record does not define 0% and 100%; most values in the screen are far below 50% and negative numbers occur (in some assays of this library far below -100).
The compounds are a random part of those screened.

Result for O=S(=O)(C1CC1)N1CC[C@]2(C[C@@H](OCC3CCOCC3)CO2)C1 was -7.57%. CCCOCC(=O)N1CCC2(CC1)c1nc[nH]c1CCN2S(C)(=O)=O gave -34.92%. CN(CCc1ccccn1)C(=O)Nc1cc(C(F)(F)F)c[nH]c1=O read -44.89%. With O=C(COc1cccc(F)c1)N1C[C@@H](CN2CCCC2)C[C@H](CO)C1 the screen gave 37.98%. Result for CN1CCC2(CCN(Cc3nccs3)CC2)C1=O.O=C(O)C(F)(F)F was -1.753%. CN(C)Cc1cnc(C2CCN(C(=O)c3ccccc3F)C2)[nH]1.Cl (stereo not given) gave 3.217%. CC(=O)N1CCCC2(CCC(=O)N2Cc2cccnc2)C1.O=C(O)C(F)(F)F (stereo not given) read 1.324%. CCc1c(C)nc(C)nc1N1C[C@@H](CN(C)C)[C@@H](CO)C1 gave 9.276%.

With O=C(NCCNc1cnccn1)N1CCCC1 the screen gave 20.96%. Result for O=c1cc(CN2CCCC2)nc2n1CCCN(CC1CCOCC1)C2 was -1.305%. With COc1ccc2c(c1)OCC(CNC(=O)c1cc(C(C)C)on1)C2 (stereo not given) the screen gave 7.717%. CC(Cn1cccn1)NCc1cccc(C#N)c1 (stereo not given) read -14.88%. Result for CN1CCN(CC2CC2)C(=O)C12CCN(C(=O)c1ccnnc1)CC2.O=C(O)C(F)(F)F was -26.2%. With CCCc1noc(CS(=O)(=O)CC(=O)NC(C)CCC)n1 (stereo not given) the screen gave -1.378%. Result for O=C1OCCN1Cc1nc(C2(c3ccc(F)cc3)CCOC2)no1 (stereo not given) was -51.86%. Result for Cc1nccn1CC1CCCN1S(=O)(=O)Cc1cccc(F)c1 (stereo not given) was -25.26%.

Result for [H][C@]12C[C@H](C(=O)NC)N(C)[C@@]1([H])CN(C(=O)c1cncc(C)c1)C2 was -22.99%. With O=C(O)C(F)(F)F.O=C(O)C(F)(F)F.O=C(O)C(F)(F)F.[H][C@]12CCN(c3ncc(F)cn3)C[C@@]1([H])OCCN(Cc1ccncc1)C2 the screen gave -1.866%. CCn1ccnc1CN1CCN(C(C)C(=O)NC2CCCCC2)CC1 (stereo not given) gave -70.8%. With O=C(COCC(F)(F)C(F)F)N1CCC2(CCCN(CC3CC3)C2=O)C1 (stereo not given) the screen gave -23.62%. With CC(C)OCc1ncn2c1CN(Cc1nccs1)CCC2.O=C(O)C(F)(F)F the screen gave -13.54%. [H][C@@]12CN(C(=O)c3ccc(C)nc3)C[C@]1([H])OCCN2CC1CCCC1 read -152%. With O=C(O)c1ccccc1-n1cnc(CN2CCc3ccccc3C2)c1 the screen gave -43.56%. For COCCc1noc(CN2CCOC(CN(C)C)C2)n1 (stereo not given) the result was -13.99%.

For C[C@@H]1CN(C2CCN(c3ccccc3F)CC2)C[C@]1(C)O the result was -30.32%. Result for Cc1ccc2nc(CN3CCCC3c3cccnc3)cc(O)c2c1 (stereo not given) was -57.82%. Cc1ccoc1C(=O)N1CC[C@@]2(C[C@H](NS(C)(=O)=O)CCO2)C1 read -12.04%. Result for COc1c(C2CCCN2c2ncnc3ccsc23)c(C)nn1C (stereo not given) was -19.61%. For Cc1cc(-c2cnn(CCNC(=O)c3cccnc3)c2C2CC2)on1.Cl the result was 11.47%. Result for O=C(c1ccccc1C1CCNC1)N1CCC(N2CCC(O)CC2)CC1 (stereo not given) was -2.408%. Cc1ccc(NC2COC3(CCN(Cc4ccn(C)n4)CC3)C2)nn1.O=C(O)C(F)(F)F (stereo not given) gave -37.6%. With CC(=O)N1CCN(Cc2ccc(OCc3nccn3C)cc2)CC1 the screen gave -1.904%.

With CCc1cc(CNC(=O)NCC(c2ccco2)N2CCCC2)[nH]n1 (stereo not given) the screen gave -44.39%.

4 of the entries, repeated:

CN(C)Cc1cnc(C2CCN(C(=O)c3ccccc3F)C2)[nH]1.Cl (stereo not given) gave 3.217%.
COc1ccc2c(c1)OCC(CNC(=O)c1cc(C(C)C)on1)C2 (stereo not given) gave 7.717%.
Cc1nccn1CC1CCCN1S(=O)(=O)Cc1cccc(F)c1 (stereo not given) gave -25.26%.
COc1c(C2CCCN2c2ncnc3ccsc23)c(C)nn1C (stereo not given) gave -19.61%.